According to patent publication EP1946779A1, “Combination of substituted pyrazolines and agent for treating dyslipidemia” (Laboratorios del Dr. Esteve S.A., priority 2007, dated 2008):
At least one compound was matched to its structure with a doubt left.

Experiment: Effects on food intake, body weight, adiposity and insulin resistance in rats obese through excessive consumption of palatable food sources
Type: in vivo
Details: obese female Wistar rats, 10 and 30 mg/kg po once daily for 28 days

O=C(NN1CCCCC1)C1=NN(c2ccc(Cl)cc2Cl)[C@@H](c2ccc(Cl)cc2)C1 [Example 8, (R)-N-piperidinyl-5-(4-chlorophenyl)-1-(2,4-dichlorophenyl)-4,5-dihydro-1H-pyrazole-3-carboxamide]
significant action in decreasing: adiposity | body weight | food intake | insulin resistance

O=C(NN1CCCCC1)C1=NN(c2ccc(Cl)cc2Cl)[C@H](c2ccc(Cl)cc2)C1 [Example 9, (S)-N-piperidinyl-5-(4-chlorophenyl)-1-(2,4-dichlorophenyl)-4,5-dihydro-1H-pyrazole-3-carboxamide]
significant action in decreasing: adiposity | body weight | food intake | insulin resistance
